Assay [1] addresses GST–MAGE-A4 (human (open reading frame amplified from H1299 genomic DNA)) (UniProt P43358). As to the kind of experiment: pull-down; recombinant GST fusion (100 ng) incubated with 100 μg cleared cell lysate in 1 ml CSK, 2 h at 4 °C; glutathione sepharose beads, 2 h more at 4 °C; washed three times in CSK+1% BSA; immunoblot; only the target purified.
For a further assay, the target named is GST–RAD18 267-402 (UniProt Q9NS91). Described as above.
A further assay has as its target HA–RAD18 wild type (UniProt Q9NS91). In words: co-IP; H1299 cell extracts in CSK buffer; magnetic beads with covalently conjugated antibodies against the epitope tag (HA or MYC), overnight at 4 °C, five washes in CSK; immunoblot; in Fig. 1d cells untreated or treated with CPT (2 μM) or UVC (20 J m^-2). Background: A western blot detects proteins with antibodies after separation by electrophoresis.

Protein sequences, listed by entry. Tags and fused reporters are not part of them. Lines headed by an entry give the natural chain unless they say otherwise; changes in a name come on top. Chains listed by the source or under a name are the forms on record and can include a tag or linker. Residues count along the entry.
UniProt P43358: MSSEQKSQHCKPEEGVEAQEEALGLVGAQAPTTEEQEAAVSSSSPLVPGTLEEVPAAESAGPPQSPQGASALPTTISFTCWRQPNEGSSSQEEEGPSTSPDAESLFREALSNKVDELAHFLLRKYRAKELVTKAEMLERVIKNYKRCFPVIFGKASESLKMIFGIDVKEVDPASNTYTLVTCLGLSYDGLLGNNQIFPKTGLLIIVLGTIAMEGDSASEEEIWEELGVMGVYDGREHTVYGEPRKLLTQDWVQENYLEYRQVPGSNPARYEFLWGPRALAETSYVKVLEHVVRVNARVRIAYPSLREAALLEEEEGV
UniProt Q9NS91: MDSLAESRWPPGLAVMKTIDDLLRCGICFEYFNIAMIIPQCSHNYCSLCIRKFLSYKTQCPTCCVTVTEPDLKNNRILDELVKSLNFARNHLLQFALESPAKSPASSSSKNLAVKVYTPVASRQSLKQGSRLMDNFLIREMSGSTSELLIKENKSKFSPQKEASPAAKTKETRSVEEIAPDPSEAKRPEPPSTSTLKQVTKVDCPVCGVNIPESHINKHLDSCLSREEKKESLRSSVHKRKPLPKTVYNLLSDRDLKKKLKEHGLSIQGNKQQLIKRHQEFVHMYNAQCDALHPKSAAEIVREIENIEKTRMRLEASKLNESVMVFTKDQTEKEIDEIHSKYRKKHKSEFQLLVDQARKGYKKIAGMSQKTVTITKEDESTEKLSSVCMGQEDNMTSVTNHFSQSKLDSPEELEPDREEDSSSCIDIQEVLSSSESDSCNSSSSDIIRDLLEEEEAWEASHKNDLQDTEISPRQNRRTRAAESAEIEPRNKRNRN
GST–RAD18 267-402: residues 267-402 of Q9NS91
HA–RAD18 Δ340–395 (ΔR6BD) (Q9NS91, form named): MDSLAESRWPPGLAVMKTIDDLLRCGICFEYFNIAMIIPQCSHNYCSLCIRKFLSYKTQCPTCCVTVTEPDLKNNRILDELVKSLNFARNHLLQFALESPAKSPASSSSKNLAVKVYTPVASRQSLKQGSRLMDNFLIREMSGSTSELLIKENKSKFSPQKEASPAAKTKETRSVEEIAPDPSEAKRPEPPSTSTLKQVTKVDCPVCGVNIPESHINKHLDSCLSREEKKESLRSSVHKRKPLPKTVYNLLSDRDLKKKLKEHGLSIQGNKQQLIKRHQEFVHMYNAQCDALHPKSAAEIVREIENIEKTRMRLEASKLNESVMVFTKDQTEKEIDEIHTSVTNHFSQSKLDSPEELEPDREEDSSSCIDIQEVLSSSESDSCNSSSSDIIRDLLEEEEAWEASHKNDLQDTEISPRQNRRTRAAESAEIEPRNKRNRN

Assay [2] has as its target HA–RAD18 Δ340–395 (ΔR6BD) (UniProt Q9NS91). The assay is described as above.
The next assay has as its target MYC–RAD18 (UniProt Q9NS91). The description is as above.
The next assay has as its target T1, MYC–TRIM69 (UniProt Q86WT6).
T1 sequence: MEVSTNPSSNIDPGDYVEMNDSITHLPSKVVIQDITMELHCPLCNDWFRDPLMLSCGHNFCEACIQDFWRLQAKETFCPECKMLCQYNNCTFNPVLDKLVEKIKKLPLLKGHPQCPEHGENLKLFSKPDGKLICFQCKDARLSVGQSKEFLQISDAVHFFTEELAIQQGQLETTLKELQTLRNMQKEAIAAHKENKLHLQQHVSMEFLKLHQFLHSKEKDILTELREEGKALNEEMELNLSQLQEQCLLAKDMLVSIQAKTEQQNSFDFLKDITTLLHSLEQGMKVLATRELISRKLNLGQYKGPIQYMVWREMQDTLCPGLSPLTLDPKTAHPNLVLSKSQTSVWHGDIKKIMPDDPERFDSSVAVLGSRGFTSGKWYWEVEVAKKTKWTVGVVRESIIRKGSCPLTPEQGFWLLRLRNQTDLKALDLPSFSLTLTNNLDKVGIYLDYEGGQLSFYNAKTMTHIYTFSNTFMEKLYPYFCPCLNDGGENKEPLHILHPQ
The description is as above.

These are yes or no findings as the source states them, for the method shown. Binding seen in cells or lysates may run through a third protein. Some results given as binding are weak or reduced against the parent protein; the word gives no strength. For part of these data: Where a sequence is shown, tags or fusion partners need not be part of it.

As to “RAD18 (from UniProt Q9NS91 1-495) (enzyme)”, the binding result in assay [1] is “binds”.

With “melanoma antigen-A4 (MAGE-A4) (from UniProt P43358 1-317)”, the binding result with GST–RAD18 267-402 is recorded as “binds”; in the assay with HA–RAD18 wild type, “binds”; in assay [2], “no binding”; with MYC–RAD18, “binds”; with MYC–TRIM69, “binds”.

The values above are taken from PMC4935975, “A neomorphic cancer cell-specific role of MAGE-A4 in trans-lesion synthesis” (Nature Communications, 2016).
